Tests used:
[1] = general procedure: hybrid (solid and solution phase) peptide synthesis; PS-2-Chlorotrityl chloride resin; HATU (TBTU, HCTU or HATU named); HATU/HOAt/2,6-lutidine for cyclisation; settings: for step yield: late stage modification step; for cyclisation yield: cyclisation step
[2] = general procedure: hybrid (solid and solution phase) peptide synthesis; 2-Chloro trityl resin; HATU (TBTU, HCTU or HATU named); HATU/HOAt/2,6-lutidine for cyclisation; settings: whole synthesis, scale 1.0 mmol

With “(2S,5S,8S,13S,16R)-5-((1H-tetrazol-5-yl)methyl)-16-benzyl-1-(4-chloro-2-(4-(2-((dimethylamino) methyl)-1-methyl-1H-imidazol-5-yl)phenoxy)benzyl)-8-(4-chlorobenzyl)-2,7,13,14-tetramethyl-1,4,7,11,14-pentaazacyclooctadecane-3,6,10,15,18-pentaone” as the substance, how does the step yield [1] read?
The step yield was 2% yield.

For “(2S,5S,8S,13S,16R)-16-Benzyl-1-(4-chloro-2-(4-(4-((dimethylamino)methyl)-5-methyl-1H-1,2,3-triazol-1-yl)phenoxy)benzyl)-8-(4-chlorobenzyl)-5-(methoxymethyl)-2,7,13,14-tetramethyl-1,4,7,11,14-pentaazacyclooctadecane-3,6,10,15,18-pentaone formate”, which step yield ([1]; formate) is on record?
The step yield was 4%.

Which cyclisation yield [1] does the source give for “(2S,5S,8S,13S,16R)-16-benzyl-8-(4-chlorobenzyl)-1-(4-ethyl-2-(4-(1-methyl-2-(pyrrolidin-1-ylmethyl)-1H-imidazol-5-yl)phenoxy)benzyl)-2-(2-fluoroethyl)-5-(methoxymethyl)-7,13,14-trimethyl-1,4,7,11,14-pentaazacyclooctadecane-3,6,10,15,18-pentaone” here?
The cyclisation yield was 47%.

Which step yield [1] does the source give for “(2S,5S,8S,13S,16R)-16-benzyl-1-(4-chloro-2-((2-(1-methylpiperidin-4-yl)-3-oxoisoindolin-5-yl)oxy)benzyl)-8-(4-chlorobenzyl)-5-(hydroxymethyl)-2,7,13,14-tetramethyl-1,4,7,11,14-pentaazacyclooctadecane-3,6,10,15,18-pentaone” here?
The step yield was 44.6%.

Which cyclisation yield [1] does the source give for “tert-butyl 2-((2S,5S,8S,13S,16R)-16-benzyl-1-(4-chloro-2-(4-(2-((dimethylamino)methyl)-1-methyl-1H-imidazol-5-yl)phenoxy)benzyl)-8-(4-chlorobenzyl)-2,7,13,14-tetramethyl-3,6,10,15,18-pentaoxo-1,4,7,11,14-pentaazacyclooctadecan-5-yl)acetate” here?
Its cyclisation yield is 46%.

Which step yield ([1]; trifluoroacetate) does the source give for “(2S,5S,8S,13S,16R)-16-benzyl-1-(4-chloro-2-(4-(5,6,7,8-tetrahydroimidazo[1,2-a]pyrazin-3-yl)-phenoxy)benzyl)-8-(4-chlorobenzyl)-5-(methoxymethyl)-2,7,13,14-tetramethyl-1,4,7,11,14-pentaazacyclooctadecane-3,6,10,15,18-pentaone trifluoroacetate” here?
The step yield was 38% yield.

Which cyclisation yield [1] does the source give for “(4S,7S,10S,14R)-14-benzyl-11-(4-chloro-2-(4-(2-((dimethylamino)methyl)-1-methyl-1H-imidazol-5-yl)phenoxy)benzyl)-4-(4-chlorobenzyl)-7-(methoxymethyl)-5,10,16-trimethyltetradecahydro-1H-pyrano[3,4-1][1,4,7,11,14]pentaazacyclooctadecine-2,6,9,12,15(3H)-pentaone” here?
Its cyclisation yield is 17%.

Which results are given for “(6S,9S,14S,17R)-6-((S)-2-aminopropanamido)-17-benzyl-9-(4-chloro benzyl)-2,2,8,14,15-pentamethyl-4,7,11,16-tetraoxo-3-oxa-8,12,15-triazanonadecan-19-oic acid”?
isolated mass [2]: 526 mg; isolated yield [2]: 74%

With “3-(2-(((2S,5S,8S,13S,16R)-16-Benzyl-8-(4-chlorobenzyl)-5-(methoxymethyl)-2,7,13,14-tetramethyl-3,6,10,15,18-pentaoxo-1,4,7,11,14-pentaazacyclooctadecan-1-yl)methyl)-5-chlorophenoxy)-N-(1-methylpiperidin-4-yl)benzamide” as the substance, how does the step yield [1] read?
The step yield was 47.4% yield.

With “(4S,7S,10S,14R,16aS,20aS)-10-(2-aminoethyl)-14-benzyl-11-(4-chloro-2-(4-(2-((dimethylamino)methyl)-1-methyl-1H-imidazol-5-yl)phenoxy)-benzyl)-4-(4-chlorobenzyl)-7-(methoxymethyl)-5,16-dimethylhexadecahydro-benzo[l][1,4,7,11,14]pentaazacyclo-octadecine-2,6,9,12,15(3H)-pentaone [109]” as the substance, how does the step yield [1] read?
The step yield was 95%.

Which step yield [1] does the source give for “(2S,5S,8S,13S,16R)-16-benzyl-1-(4-chloro-2-(4-(2-(1-hydroxyethyl)-1-methyl-1H-imidazol-5-yl)phenoxy)benzyl)-8-(4-chlorobenzyl)-5-(hydroxymethyl)-2,7,13,14-tetramethyl-1,4,7,11,14-pentaazacyclooctadecane-3,6,10,15,18-pentaone” here?
The step yield was 55.7% yield.
